These are yes or no findings as the source states them, for the method shown. Some entries that bind do so weakly or less than the wild type. Where a sequence is shown, tags or fusion partners need not be part of it.
Legend:
[1] = target: Human LAG-3 fused to CFP or YFP, on Expi293F cells (human) (UniProt P18627); experiment: flow-FRET in Expi293F cells; self-association
[2] = target: Human LAG-3 fused to CFP or YFP, on Expi293F cells (human) (UniProt P18627); experiment: flow-FRET; self-association
[3] = target: Human LAG-3 fused to CFP or YFP, on Expi293F cells (human) (UniProt P18627); experiment: flow-FRET in Expi293 cells; self-association

Measured: binding

B1: Human LAG-3 fused to CFP or YFP, on Expi293F cells (receptor, not shown: large carriers)
chain: VPVVWAQEGAPAQLPCSPTIPLQDLSLLRRAGVTWQHQPDSGPPAAAPGHPLAPGPHPAAPSSWGPRPRRYTVLSVGPGGLRSGRLPLQPRVQLDERGRQRGDFSLWLRPARRADAGEYRAAVHLRDRALSCRLRLRLGQASMTASPPGSLRASDWVILNCSFSRPDRPASVHWFRNRGQGRVPVRESPHHHLAESFLFLPQVSPMDSGPWGCILTYRDGFNVSIMYNLTVLGLEPPTPLTVYAGAGSRVGLPCRLPAGVGTRSFLTAKWTPPGGGPDLLVTGDNGDFTLRLEDVSQAQAGTYTCHIHLQEQQLNATVTLAIITVTPKSFGSPGSLGKLLCEVTPVSGQERFVWSSLDTPSQRSFSGPWLEAQEAQLLSQPWQCQLYQGERLLGAAVYFTELSSPGAQRSGRAPGALPAGHLLLFLILGVLSLLLLVTGAFGFHLWRRQWRPRRFSALEQGIHPPQAQSKIEELEQEPEPEPEPEPEPEPEPEPEQL
binds: all assays above
